Some of these results come from one statement about several compounds together. Some compounds share one range, which may span the group rather than tell each member.
Key:
[1] = test system: harmful plants ALOMY, AVEFA, ECHCG, LOLMU, SETVI, ABUTH, AMARE, MATIN, PHBPU, POLCO, STEME, VIOTR, VERPE; test: Herbicidal post-emergence action (greenhouse pot test); assay type: in vivo; conditions: post-emergence method, against several harmful plants; for very good activity (herbicidal): 80 g of active substance per hectare; for excellent activity (herbicidal): 320 g of active substance per hectare
[2] = test system: harmful plants ALOMY, AVEFA, ECHCG, LOLMU, SETVI, ABUTH, AMARE, MATIN, PHBPU, POLCO, STEME, VIOTR, VERPE; test: Herbicidal pre-emergence action (greenhouse pot test); assay type: in vivo; conditions: pre-emergence method, against several harmful plants; for very good activity (herbicidal): 80 g of active substance per hectare; for excellent activity (herbicidal): 320 g of active substance per hectare

Row | Structure (SMILES) | very good activity (herbicidal) [1] | excellent activity (herbicidal) [1] | very good activity (herbicidal) [2] | excellent activity (herbicidal) [2]
1 | C#Cc1c(N)nsc1C(=O)NCc1ccc(F)cc1F [Compound I-227] | 80-100% | 90-100% | 80-100% | 90-100%
2 | Nc1nsc(C(=O)NCC2CCCC2)c1F [Compound I-495] | 80-100% | 90-100% | 80-100% | 90-100%
3 | Nc1nsc(C(=O)NCC2CCCCCC2)c1F [Compound I-497] | 80-100% | 90-100% | 80-100% | 90-100%
4 | Nc1nsc(C(=O)NCc2ccc(F)cc2)c1F [Compound I-506] | 80-100% | 90-100% | 80-100% | 90-100%
5 | Nc1nsc(C(=O)NCc2c(F)cc(F)cc2F)c1F [Compound I-524] | 80-100% | 90-100% | 80-100% | 90-100%
6 | Nc1nsc(C(=O)NCc2cc(F)c(F)c(F)c2)c1F [Compound I-527] | 80-100% | 90-100% | 80-100% | 90-100%
7 | Nc1nsc(C(=O)NCc2ccc(F)c(F)c2F)c1F [Compound I-528] | 80-100% | 90-100% | 80-100% | 90-100%
8 | Nc1nsc(C(=O)NCc2cc(F)c(F)cc2F)c1F [Compound I-534] | 80-100% | 90-100% | 80-100% | 90-100%
9 | CC1CCCCC1CNC(=O)c1snc(N)c1F (stereo not shown) [Compound I-535] | 80-100% | 90-100% | 80-100% | 90-100%
10 | Nc1nsc(C(=O)NCc2cc(F)c(F)cc2Cl)c1Cl [Compound I-540] | 80-100% | 90-100% | 80-100% | 90-100%
11 | CC(=O)Nc1nsc(C(=O)NCC2CCCCC2)c1Cl [II-22] | 80-100% | 90-100% | 80-100% | 90-100%
12 | CC(=O)Nc1nsc(C(=O)NCc2ccc(F)cc2F)c1Cl [II-28] | 80-100% | 90-100% | 80-100% | 90-100%
13 | CCCC(=O)Nc1nsc(C(=O)NCC2CCCCC2)c1Cl [II-29] | 80-100% | 90-100% | 80-100% | 90-100%
14 | O=C(CCl)Nc1nsc(C(=O)NCC2CCCCC2)c1Cl [II-57] | 80-100% | 90-100% | 80-100% | 90-100%
15 | O=C(CCl)Nc1nsc(C(=O)NCc2ccc(F)cc2F)c1Cl [II-63] | 80-100% | 90-100% | 80-100% | 90-100%
16 | O=C(CBr)Nc1nsc(C(=O)NCc2ccc(F)cc2F)c1Cl [II-70] | 80-100% | 90-100% | 80-100% | 90-100%
17 | COCC(=O)Nc1nsc(C(=O)NCC2CCCCC2)c1Cl [II-71] | 80-100% | 90-100% | 80-100% | 90-100%
18 | CSCC(=O)Nc1nsc(C(=O)NCC2CCCCC2)c1Cl [II-78] | 80-100% | 90-100% | 80-100% | 90-100%
19 | CSCC(=O)Nc1nsc(C(=O)NCc2ccc(F)cc2F)c1Cl [II-84] | 80-100% | 90-100% | 80-100% | 90-100%
20 | COC(=O)C(=O)Nc1nsc(C(=O)NCC2CCCCC2)c1Cl [II-85] | 80-100% | 90-100% | 80-100% | 90-100%

Row | Structure (SMILES) | very good activity (herbicidal) [1] | excellent activity (herbicidal) [1] | very good activity (herbicidal) [2] | excellent activity (herbicidal) [2]
21 | COC(=O)C(=O)Nc1nsc(C(=O)NCc2ccc(F)cc2F)c1Cl [II-91] | 80-100% | 90-100% | 80-100% | 90-100%
22 | COC(=O)CC(=O)Nc1nsc(C(=O)NCC2CCCCC2)c1Cl [II-92] | 80-100% | 90-100% | 80-100% | 90-100%
23 | COC(=O)CC(=O)Nc1nsc(C(=O)NCc2ccc(F)cc2F)c1Cl [II-98] | 80-100% | 90-100% | 80-100% | 90-100%
24 | COC(=O)CCC(=O)Nc1nsc(C(=O)NCC2CCCCC2)c1Cl [II-99] | 80-100% | 90-100% | 80-100% | 90-100%
25 | COC(=O)CCC(=O)Nc1nsc(C(=O)NCc2ccc(F)cc2F)c1Cl [II-105] | 80-100% | 90-100% | 80-100% | 90-100%
26 | O=C(NCC1CCCCC1)c1snc(NC(=O)C(F)(F)F)c1Cl [II-106] | 80-100% | 90-100% | 80-100% | 90-100%
27 | O=C(NCc1ccc(F)cc1F)c1snc(NC(=O)C(F)(F)F)c1Cl [II-112] | 80-100% | 90-100% | 80-100% | 90-100%
28 | O=C(CC(F)(F)F)Nc1nsc(C(=O)NCC2CCCCC2)c1Cl [II-113] | 80-100% | 90-100% | 80-100% | 90-100%
29 | O=C(CC(F)(F)F)Nc1nsc(C(=O)NCc2ccc(F)cc2F)c1Cl [II-119] | 80-100% | 90-100% | 80-100% | 90-100%
30 | O=C(NCC1CCCCC1)c1snc(NC(=O)C(F)(F)C(F)(F)F)c1Cl [II-120] | 80-100% | 90-100% | 80-100% | 90-100%
31 | O=C(NCc1ccc(F)cc1F)c1snc(NC(=O)C(F)(F)C(F)(F)F)c1Cl [II-126] | 80-100% | 90-100% | 80-100% | 90-100%
32 | O=C(NCC1CCCCC1)c1snc(NC(=O)C(F)(F)C(F)(F)C(F)(F)F)c1Cl [II-127] | 80-100% | 90-100% | 80-100% | 90-100%
33 | O=C(NCc1ccc(F)cc1F)c1snc(NC(=O)C(F)(F)C(F)(F)C(F)(F)F)c1Cl [II-133] | 80-100% | 90-100% | 80-100% | 90-100%
34 | CC(Br)C(=O)Nc1nsc(C(=O)NCc2ccc(F)cc2F)c1Cl (stereo not shown) [II-140] | 80-100% | 90-100% | 80-100% | 90-100%
35 | O=C(NCc1ccc(F)cc1F)c1snc(NC(=O)C(Cl)Cl)c1Cl [II-147] | 80-100% | 90-100% | 80-100% | 90-100%
36 | O=C(Nc1nsc(C(=O)NCC2CCCCC2)c1Cl)c1ccccc1 [II-148] | 80-100% | 90-100% | 80-100% | 90-100%
37 | CN(C)C=Nc1nsc(C(=O)NCC2CCCCC2)c1Cl [II-183] | 80-100% | 90-100% | 80-100% | 90-100%
38 | C=CC(=O)N(C(=O)C=C)c1nsc(C(=O)NCc2ccc(F)cc2F)c1Cl [II-196] | 80-100% | 90-100% | 80-100% | 90-100%
39 | O=C(NCC1CCCCC1)c1snc(NC(=O)C(F)F)c1Cl [II-211] | 80-100% | 90-100% | 80-100% | 90-100%
40 | O=C(NCc1ccc(F)cc1F)c1snc(NC(=O)C(F)F)c1Cl [II-217] | 80-100% | 90-100% | 80-100% | 90-100%
